Measured values published in article PMC4694903.
Results are given in words; binding and its absence hold for the method and conditions named. For part of these data: In cells and extracts the contact can be indirect. Some binding calls cover weakened binding; strength is not graded here. For part of these data: Where a sequence is shown, tags or fusion partners need not be part of it.

Sequences of proteins named here, by UniProt entry; tags and fusion partners are left off. A change or cut given only in a name is not applied to a line headed by its entry. A line that says so, or that is headed by a name, gives the form on record, which may keep a tag or linker.
CD44 Ser325Ala mutant fused with the C-terminal half of ubiquitin linked to PLV (P16070, form named): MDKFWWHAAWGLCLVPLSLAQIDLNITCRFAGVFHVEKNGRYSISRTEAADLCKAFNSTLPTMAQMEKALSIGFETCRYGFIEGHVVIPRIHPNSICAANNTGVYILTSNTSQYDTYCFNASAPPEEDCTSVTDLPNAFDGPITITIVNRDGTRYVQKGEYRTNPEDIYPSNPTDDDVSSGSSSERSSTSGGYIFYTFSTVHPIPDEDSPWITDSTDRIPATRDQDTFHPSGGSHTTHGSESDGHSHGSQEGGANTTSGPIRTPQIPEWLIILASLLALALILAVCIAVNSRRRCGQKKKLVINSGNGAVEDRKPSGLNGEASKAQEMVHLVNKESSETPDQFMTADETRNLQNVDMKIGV
CD44 Ser291Ala mutant fused with the C-terminal half of ubiquitin linked to PLV (P16070, form named): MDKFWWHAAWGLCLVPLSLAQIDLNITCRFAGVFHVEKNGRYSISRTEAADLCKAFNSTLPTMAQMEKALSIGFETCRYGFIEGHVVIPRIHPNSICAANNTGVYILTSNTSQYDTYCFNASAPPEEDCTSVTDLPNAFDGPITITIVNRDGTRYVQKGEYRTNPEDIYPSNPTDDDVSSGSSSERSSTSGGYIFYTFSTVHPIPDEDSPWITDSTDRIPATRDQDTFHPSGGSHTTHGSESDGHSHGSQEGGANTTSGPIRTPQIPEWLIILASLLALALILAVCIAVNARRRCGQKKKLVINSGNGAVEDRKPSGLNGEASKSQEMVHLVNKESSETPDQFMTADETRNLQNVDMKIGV
CD44 Ser325 to aspartate mutant fused with the C-terminal half of ubiquitin linked to PLV (P16070, form named): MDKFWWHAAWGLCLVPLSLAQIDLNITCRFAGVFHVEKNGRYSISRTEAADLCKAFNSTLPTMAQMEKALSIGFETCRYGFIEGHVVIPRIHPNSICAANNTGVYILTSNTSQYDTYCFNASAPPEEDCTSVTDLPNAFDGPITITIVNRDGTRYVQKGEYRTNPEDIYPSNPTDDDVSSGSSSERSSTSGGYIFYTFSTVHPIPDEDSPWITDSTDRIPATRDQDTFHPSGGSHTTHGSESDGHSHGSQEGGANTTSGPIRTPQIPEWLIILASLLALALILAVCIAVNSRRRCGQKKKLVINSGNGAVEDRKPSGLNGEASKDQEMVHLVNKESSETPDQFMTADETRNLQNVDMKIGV
CD44 standard isoform (CD44s), wild type, fused with the C-terminal half of ubiquitin linked to PLV (P16070, form named): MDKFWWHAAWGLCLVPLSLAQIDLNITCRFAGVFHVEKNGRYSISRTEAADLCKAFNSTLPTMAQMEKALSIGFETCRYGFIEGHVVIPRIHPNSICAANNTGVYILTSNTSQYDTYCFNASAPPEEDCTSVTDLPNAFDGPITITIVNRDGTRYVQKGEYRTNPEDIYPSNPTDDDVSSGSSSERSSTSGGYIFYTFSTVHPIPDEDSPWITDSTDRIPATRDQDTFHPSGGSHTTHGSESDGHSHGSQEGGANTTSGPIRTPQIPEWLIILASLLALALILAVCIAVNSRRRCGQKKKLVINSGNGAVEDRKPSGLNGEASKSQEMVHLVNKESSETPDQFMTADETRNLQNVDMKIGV
CD44 Ser291Asp mutant fused with the C-terminal half of ubiquitin linked to PLV (P16070, form named): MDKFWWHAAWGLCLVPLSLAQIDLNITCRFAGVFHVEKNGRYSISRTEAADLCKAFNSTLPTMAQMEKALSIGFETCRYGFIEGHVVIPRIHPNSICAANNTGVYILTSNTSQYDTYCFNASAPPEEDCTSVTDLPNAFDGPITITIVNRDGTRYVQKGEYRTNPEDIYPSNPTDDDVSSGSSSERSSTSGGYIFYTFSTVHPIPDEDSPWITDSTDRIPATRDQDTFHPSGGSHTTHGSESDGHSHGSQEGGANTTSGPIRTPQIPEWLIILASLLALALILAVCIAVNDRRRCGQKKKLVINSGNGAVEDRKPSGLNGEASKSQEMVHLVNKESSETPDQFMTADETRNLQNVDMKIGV
UniProt P08183: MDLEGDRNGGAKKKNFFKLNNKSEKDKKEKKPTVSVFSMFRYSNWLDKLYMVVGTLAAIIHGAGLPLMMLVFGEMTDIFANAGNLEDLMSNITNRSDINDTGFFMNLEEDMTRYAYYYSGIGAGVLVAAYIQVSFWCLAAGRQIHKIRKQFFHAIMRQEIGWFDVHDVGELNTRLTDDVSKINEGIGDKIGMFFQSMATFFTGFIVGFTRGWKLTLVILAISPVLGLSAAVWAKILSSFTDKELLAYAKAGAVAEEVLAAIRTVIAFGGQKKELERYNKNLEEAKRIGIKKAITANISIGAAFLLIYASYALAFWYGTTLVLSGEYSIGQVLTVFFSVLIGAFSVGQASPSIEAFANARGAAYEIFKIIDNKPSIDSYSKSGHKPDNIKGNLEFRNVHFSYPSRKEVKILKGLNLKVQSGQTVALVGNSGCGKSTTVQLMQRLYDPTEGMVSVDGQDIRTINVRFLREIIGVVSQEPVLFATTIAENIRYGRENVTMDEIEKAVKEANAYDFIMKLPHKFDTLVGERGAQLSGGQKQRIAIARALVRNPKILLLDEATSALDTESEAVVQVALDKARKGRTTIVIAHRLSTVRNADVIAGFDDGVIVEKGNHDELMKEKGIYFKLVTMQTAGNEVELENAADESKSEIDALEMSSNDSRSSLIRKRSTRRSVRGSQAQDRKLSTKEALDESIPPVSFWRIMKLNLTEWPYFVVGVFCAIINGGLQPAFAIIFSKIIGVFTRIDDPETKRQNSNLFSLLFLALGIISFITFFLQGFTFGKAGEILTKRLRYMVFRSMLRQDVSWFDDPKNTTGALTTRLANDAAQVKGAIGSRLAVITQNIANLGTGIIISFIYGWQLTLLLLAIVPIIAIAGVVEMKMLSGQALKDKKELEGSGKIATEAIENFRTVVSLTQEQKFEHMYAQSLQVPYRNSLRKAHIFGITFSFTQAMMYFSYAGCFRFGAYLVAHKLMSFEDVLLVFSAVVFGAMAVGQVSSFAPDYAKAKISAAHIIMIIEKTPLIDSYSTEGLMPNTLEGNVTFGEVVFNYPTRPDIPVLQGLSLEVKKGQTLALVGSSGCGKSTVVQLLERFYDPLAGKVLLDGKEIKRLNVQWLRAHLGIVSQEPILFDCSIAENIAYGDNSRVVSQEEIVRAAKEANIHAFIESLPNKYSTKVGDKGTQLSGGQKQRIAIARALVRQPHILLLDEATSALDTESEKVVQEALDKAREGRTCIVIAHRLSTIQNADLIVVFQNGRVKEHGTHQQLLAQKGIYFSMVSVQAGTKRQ

What was measured:
[1] = molecular target: CD44 Ser325Ala mutant fused with the C-terminal half of ubiquitin linked to PLV (human) (UniProt P16070); test: two-hybrid; split ubiquitin yeast two-hybrid (Dual membrane system, Dualsystems Biotech) in S. cerevisiae DSY-1; MDR1 fused with the N-terminal half of ubiquitin, CD44 with the C-terminal half linked to PLV; reporters HIS3 and lacZ; leucine-tryptophan-histidine triple selection plates with 3mM 3-aminotrazole
[2] = molecular target: CD44 Ser291Ala mutant fused with the C-terminal half of ubiquitin linked to PLV (human) (UniProt P16070); test: as above
[3] = molecular target: CD44 Ser325 to aspartate mutant fused with the C-terminal half of ubiquitin linked to PLV (human) (UniProt P16070); test: as above
[4] = molecular target: CD44 standard isoform (CD44s), wild type, fused with the C-terminal half of ubiquitin linked to PLV (human) (UniProt P16070); test: as above
[5] = molecular target: CD44 Ser291Asp mutant fused with the C-terminal half of ubiquitin linked to PLV (human) (UniProt P16070); test: as above
[6] = molecular target: His-tagged P-glycoprotein (UniProt P08183); test: co-IP; HEK293T cells transfected with His-tagged P-gp and myc-tagged FBXO21, lysed after 48 hrs; whole cell lysates subjected to reciprocal immunoprecipitation and immunoblotted

Measured: binding

P-glycoprotein (MDR1 gene product) fused with the N-terminal half of ubiquitin (from UniProt P08183 1-1280)
not listed: [6]
binds: all other assays above

B1: Myc-tagged FBXO21 (protein, UniProt O94952 1-628)
chain: MAAAAVDSAMEVVPALAEEAAPEVAGLSCLVNLPGEVLEYILCCGSLTAADIGRVSSTCRRLRELCQSSGKVWKEQFRVRWPSLMKHYSPTDYVNWLEEYKVRQKAGLEARKIVASFSKRFFSEHVPCNGFSDIENLEGPEIFFEDELVCILNMEGRKALTWKYYAKKILYYLRQQKILNNLKAFLQQPDDYESYLEGAVYIDQYCNPLSDISLKDIQAQIDSIVELVCKTLRGINSRHPSLAFKAGESSMIMEIELQSQVLDAMNYVLYDQLKFKGNRMDYYNALNLYMHQVLIRRTGIPISMSLLYLTIARQLGVPLEPVNFPSHFLLRWCQGAEGATLDIFDYIYIDAFGKGKQLTVKECEYLIGQHVTAALYGVVNVKKVLQRMVGNLLSLGKREGIDQSYQLLRDSLDLYLAMYPDQVQLLLLQARLYFHLGIWPEKSFCLVLKVLDILQHIQTLDPGQHGAVGYLVQHTLEHIERKKEEVGVEVKLRSDEKHRDVCYSIGLIMKHKRYGYNCVIYGWDPTCMMGHEWIRNMNVHSLPHGHHQPFYNVLVEDGSCRYAAQENLEYNVEPQEISHPDVGRYFSEFTGTHYIPNAELEIRYPEDLEFVYETVQNIYSAKKENIDE
binds: [6]
